Record: PubChem BioAssay AID1224828 (NIAID, 2016)

Test: 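Find genes required for NF-kappaB p65 moving into the nucleus after LPS in mouse macrophages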 (primary screen)
Cells: mouse RAW264.7 G9 macrophage reporter cells (GFP-p65, Tnf promoter-mCherry)
Knock-down reagent: siRNA pool against mouse genes, 100 nM
Duration: 2 days siRNA transfection, then 40 min LPS before fixation
Conditions: LPS (Salmonella minnesota R595) at 10 ng/ml
Measured: 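Microscopy ratio of nuclear to perinuclear-ring GFP-p65 signal, scaled to the plate median; gene score is the average of two replicate robust z-scores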
Reading the numbers: p65 translocation robust z-score: higher = more nuclear NF-kappaB p65 after LPS than the plate median; nuclear/cytoplasmic p65 ratio: higher = more nuclear NF-kappaB p65
Rule for the call: 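Active if robust z is above 3.3 (negative regulators) or below -1.56, the Tlr4 control median (positive regulators); activity score 50 or more; control wells not called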
Meaning of the calls: active = hit (p65 shift raised or lowered); inactive = no clear change
Here is an unselected part of about 17,000 deposited reagents. Of all reagents, 762 (4.5%) got an active call. 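Active calls include both raised and lowered p65 entry, mostly lowered; wells with fewer than 50 cells lack a z-score.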 Raw values are not corrected between plates. The numbers tell different reagents against one gene apart.

no.	Gene	reagent	p65 translocation robust z-score	nuclear/cytoplasmic p65 ratio, rep 1	nuclear/cytoplasmic p65 ratio, rep 2	low cell count flag	outcome
1	Dohh	1	-0.57	1.36	1.47	enough cells to score	inactive
2	Gja8	1	-0.79	1.31	1.29	enough cells to score	inactive
3	Vcan	1	-0.8	1.39	1.26	enough cells to score	inactive
4	Aldh3b2	1	0.09	1.72	1.54	enough cells to score	inactive
5	Sap130	1		1.19	1.26	fewer than 50 cells per well; well left out of scoring	inactive
6	Corin	1	1.43	1.76	2.04	enough cells to score	inactive
7	Klf11	1	1.14	1.65	1.71	enough cells to score	inactive
8	Rps27a	1		1.33	1.06	fewer than 50 cells per well; well left out of scoring	inactive
9	Sox15	1	-0.84	1.38	1.49	enough cells to score	inactive
10	Rasl2-9	1	1.5	1.41	1.38	enough cells to score	inactive
11	Tnfrsf22	1	-1.91	1.12	1.05	enough cells to score	active
12	Tnfrsf22	2	2.02	1.69	1.82	enough cells to score	inactive
13	Trim35	1	-1.44	1.18	1.04	enough cells to score	inactive
14	Hdac1	1	1.26	1.59	1.55	enough cells to score	inactive
15	Or2y16	1	-0.94	1.46	1.31	enough cells to score	inactive
16	Prodh	1	2.34	1.87	1.67	enough cells to score	inactive
17	Zfp768	1	-1.86	1.36	1.53	enough cells to score	active
18	Yrdc	1	0.66	1.63	2	enough cells to score	inactive
19	Stoml1	1	1	1.58	1.32	enough cells to score	inactive
20	Kcnh8	1	2.15	1.7	1.71	enough cells to score	inactive
21	Itga8	1	0.95	1.59	1.51	enough cells to score	inactive
22	Ddx25	1	-0.59	1.36	1.58	enough cells to score	inactive
23	Rnf26	1		1.31	1.08	fewer than 50 cells per well; well left out of scoring	inactive
24	Epn1	1	0.42	1.64	1.54	enough cells to score	inactive
25	Zc3h12a	1	-1.71	1.35	1.53	enough cells to score	active
26	Elp1	1	-0.99	2.59	1.25	enough cells to score	inactive
27	Ubtd1	1	-0.2	1.62	1.73	enough cells to score	inactive
28	Or6c70	1	1.02	1.51	1.39	enough cells to score	inactive
29	Abi1	1	-0.87	1.47	1.34	enough cells to score	inactive
30	Chil3	1	0.19	1.63	1.98	enough cells to score	inactive
31	Mettl2	1	1.75	2.03	1.77	enough cells to score	inactive
32	Glod4	1		1.37	1.33	fewer than 50 cells per well; well left out of scoring	inactive
33	Atp9b	1	1.35	1.65	1.86	enough cells to score	inactive
34	Cntd1	1	-0.8	1.22	1.32	enough cells to score	inactive
35	Esyt1	1	-0.19	1.45	1.58	enough cells to score	inactive
36	Nkrf	1	-0.02	1.35	1.54	enough cells to score	inactive
37	Nek6	1	0.68	1.82	1.44	enough cells to score	inactive
38	Nlrx1	1	0.29	1.66	1.85	enough cells to score	inactive
39	Or5p69	1	0.46	1.51	1.25	enough cells to score	inactive
40	Elovl2	1	-0.85	1.34	1.27	enough cells to score	inactive

7 entries from above, set out differently:
Prodh
- p65 translocation robust z-score: 2.34
- nuclear/cytoplasmic p65 ratio, rep 1: 1.87
- nuclear/cytoplasmic p65 ratio, rep 2: 1.67
- low cell count flag: enough cells to score
- outcome: inactive

Zfp768
- p65 translocation robust z-score: -1.86
- nuclear/cytoplasmic p65 ratio, rep 1: 1.36
- nuclear/cytoplasmic p65 ratio, rep 2: 1.53
- low cell count flag: enough cells to score
- outcome: active

Yrdc
- p65 translocation robust z-score: 0.66
- nuclear/cytoplasmic p65 ratio, rep 1: 1.63
- nuclear/cytoplasmic p65 ratio, rep 2: 2
- low cell count flag: enough cells to score
- outcome: inactive

Stoml1
- p65 translocation robust z-score: 1
- nuclear/cytoplasmic p65 ratio, rep 1: 1.58
- nuclear/cytoplasmic p65 ratio, rep 2: 1.32
- low cell count flag: enough cells to score
- outcome: inactive

Kcnh8
- p65 translocation robust z-score: 2.15
- nuclear/cytoplasmic p65 ratio, rep 1: 1.7
- nuclear/cytoplasmic p65 ratio, rep 2: 1.71
- low cell count flag: enough cells to score
- outcome: inactive

Itga8
- p65 translocation robust z-score: 0.95
- nuclear/cytoplasmic p65 ratio, rep 1: 1.59
- nuclear/cytoplasmic p65 ratio, rep 2: 1.51
- low cell count flag: enough cells to score
- outcome: inactive

Ddx25
- p65 translocation robust z-score: -0.59
- nuclear/cytoplasmic p65 ratio, rep 1: 1.36
- nuclear/cytoplasmic p65 ratio, rep 2: 1.58
- low cell count flag: enough cells to score
- outcome: inactive
